Laboratory results taken from PMC9131266.
Results are given in words; binding and its absence hold for the method and conditions named. Binding seen in cells or lysates may run through a third protein. Some binding calls cover weakened binding; strength is not graded here.

Protein sequences, listed by entry. Tags and fused reporters are not part of them.
UniProt Q9Z0J4: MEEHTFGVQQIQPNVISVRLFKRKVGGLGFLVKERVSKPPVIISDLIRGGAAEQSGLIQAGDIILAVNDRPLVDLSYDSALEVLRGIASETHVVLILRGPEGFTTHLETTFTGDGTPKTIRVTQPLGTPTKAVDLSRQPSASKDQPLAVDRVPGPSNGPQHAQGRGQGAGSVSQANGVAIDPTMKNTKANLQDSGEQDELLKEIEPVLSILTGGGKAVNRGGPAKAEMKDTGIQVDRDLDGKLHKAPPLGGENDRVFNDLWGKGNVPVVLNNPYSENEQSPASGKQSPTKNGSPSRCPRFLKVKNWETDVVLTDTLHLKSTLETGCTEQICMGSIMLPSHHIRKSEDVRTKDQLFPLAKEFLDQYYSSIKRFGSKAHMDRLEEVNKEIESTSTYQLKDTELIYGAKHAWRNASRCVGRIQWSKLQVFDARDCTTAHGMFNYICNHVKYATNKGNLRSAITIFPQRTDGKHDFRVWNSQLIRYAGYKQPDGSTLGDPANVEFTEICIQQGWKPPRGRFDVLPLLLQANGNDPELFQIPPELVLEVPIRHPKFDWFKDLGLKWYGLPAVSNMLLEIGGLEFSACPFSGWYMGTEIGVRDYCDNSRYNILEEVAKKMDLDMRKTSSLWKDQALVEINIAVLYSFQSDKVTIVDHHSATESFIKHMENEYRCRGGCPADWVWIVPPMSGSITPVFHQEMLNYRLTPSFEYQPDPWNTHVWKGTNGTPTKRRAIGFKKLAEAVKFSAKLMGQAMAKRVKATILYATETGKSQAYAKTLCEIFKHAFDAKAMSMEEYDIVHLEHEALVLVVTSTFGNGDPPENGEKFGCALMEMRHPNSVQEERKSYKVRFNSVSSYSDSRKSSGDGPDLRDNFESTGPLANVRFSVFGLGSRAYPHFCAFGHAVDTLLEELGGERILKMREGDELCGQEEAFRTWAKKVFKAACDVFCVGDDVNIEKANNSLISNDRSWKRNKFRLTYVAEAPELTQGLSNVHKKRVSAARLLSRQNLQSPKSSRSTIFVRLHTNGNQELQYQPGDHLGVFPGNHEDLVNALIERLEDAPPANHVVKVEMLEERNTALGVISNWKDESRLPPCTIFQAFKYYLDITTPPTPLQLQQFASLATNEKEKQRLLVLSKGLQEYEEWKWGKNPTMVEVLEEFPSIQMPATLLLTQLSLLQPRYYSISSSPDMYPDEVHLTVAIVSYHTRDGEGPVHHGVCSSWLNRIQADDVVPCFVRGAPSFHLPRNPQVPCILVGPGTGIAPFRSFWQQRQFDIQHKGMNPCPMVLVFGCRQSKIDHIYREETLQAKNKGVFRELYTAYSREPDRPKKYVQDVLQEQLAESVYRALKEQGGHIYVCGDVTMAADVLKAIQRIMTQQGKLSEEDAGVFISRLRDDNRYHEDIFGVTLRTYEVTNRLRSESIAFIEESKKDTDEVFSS
UniProt Q9D3A8: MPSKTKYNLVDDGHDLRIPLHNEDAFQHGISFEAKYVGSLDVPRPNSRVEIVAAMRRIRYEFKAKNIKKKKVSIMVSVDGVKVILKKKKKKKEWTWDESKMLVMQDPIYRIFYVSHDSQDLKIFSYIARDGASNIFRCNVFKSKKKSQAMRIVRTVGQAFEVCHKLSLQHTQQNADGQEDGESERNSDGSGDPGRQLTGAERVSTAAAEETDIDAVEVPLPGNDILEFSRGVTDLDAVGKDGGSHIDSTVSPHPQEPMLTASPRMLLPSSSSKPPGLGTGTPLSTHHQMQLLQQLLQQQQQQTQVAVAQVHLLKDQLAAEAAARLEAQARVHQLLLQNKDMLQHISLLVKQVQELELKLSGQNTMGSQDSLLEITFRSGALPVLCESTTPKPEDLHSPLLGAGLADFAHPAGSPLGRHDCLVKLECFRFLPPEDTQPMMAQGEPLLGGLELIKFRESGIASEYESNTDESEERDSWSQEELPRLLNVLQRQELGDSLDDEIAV

Key:
[1] = target: neuronal nitric oxide synthase (mouse (endogenous in hippocampal DG and cultured neurons of ICR mice)) (UniProt Q9Z0J4); assay: co-IP; synaptosome samples from the hippocampal DG of vehicle- and 5-HT-treated mice; immunoblot of the association of nNOS and CAPON
[2] = target: neuronal nitric oxide synthase (mouse (endogenous in hippocampal DG and cultured neurons of ICR mice)) (UniProt Q9Z0J4); assay: co-IP; hippocampal DG of mice homogenised in lysis buffer; anti-nNOS antibody on protein G-Sepharose beads, overnight; washed with 0.05 M HEPES pH 7.1, 0.15% Triton X-100, 0.15 M NaCl; immunoblot for CAPON, shown as the ratio of CAPON to nNOS; mice treated with vehicle, CMS, CORT, fluoxetine, 5-HT, 8-OH-DPAT or NAN-190
[3] = target: neuronal nitric oxide synthase (mouse (endogenous in hippocampal DG and cultured neurons of ICR mice)) (UniProt Q9Z0J4); assay: proximity ligation; Duolink in situ PLA on fixed primary cultured neurons at 10 DIV with mouse anti-nNOS and rabbit anti-CAPON antibodies; neurons treated with vehicle, CORT, CORT + fluoxetine, 5-HT, 8-OH-DPAT or NAN-190 for 72 h

Measured: binding

carboxy-terminal PDZ ligand of nNOS (from UniProt Q9D3A8 1-503)
binds: [1] | [2] | [3]
